Source: PubChem BioAssay AID588590 (National Center for Advancing Translational Sciences (NCATS), 2011)
Values joined by “and” are separate entries in the source; they are usually repeats but may differ in a detail not shown here. Identical values can stand only once. In all, about 390,000 compounds went through this assay and about 4,000 (1%) were called active. Inconclusive means that the source gave no clear call. Such entries were picked first, then a sample of the others. Calls follow the shape of the dose curve; as a rule, active = well fitted inhibition curve with a large enough effect; inconclusive = small, poorly fitted or top-dose-only effect, or another doubt; inactive = no such curve, though single readings can be large or run the other way. Potencies of inconclusive entries are doubtful fits and often do not repeat.

Protein sequences, listed by entry. Tags and fused reporters are not part of them. Lines headed by an entry give the natural chain unless they say otherwise; changes in a name come on top.
UniProt Q9UNA4: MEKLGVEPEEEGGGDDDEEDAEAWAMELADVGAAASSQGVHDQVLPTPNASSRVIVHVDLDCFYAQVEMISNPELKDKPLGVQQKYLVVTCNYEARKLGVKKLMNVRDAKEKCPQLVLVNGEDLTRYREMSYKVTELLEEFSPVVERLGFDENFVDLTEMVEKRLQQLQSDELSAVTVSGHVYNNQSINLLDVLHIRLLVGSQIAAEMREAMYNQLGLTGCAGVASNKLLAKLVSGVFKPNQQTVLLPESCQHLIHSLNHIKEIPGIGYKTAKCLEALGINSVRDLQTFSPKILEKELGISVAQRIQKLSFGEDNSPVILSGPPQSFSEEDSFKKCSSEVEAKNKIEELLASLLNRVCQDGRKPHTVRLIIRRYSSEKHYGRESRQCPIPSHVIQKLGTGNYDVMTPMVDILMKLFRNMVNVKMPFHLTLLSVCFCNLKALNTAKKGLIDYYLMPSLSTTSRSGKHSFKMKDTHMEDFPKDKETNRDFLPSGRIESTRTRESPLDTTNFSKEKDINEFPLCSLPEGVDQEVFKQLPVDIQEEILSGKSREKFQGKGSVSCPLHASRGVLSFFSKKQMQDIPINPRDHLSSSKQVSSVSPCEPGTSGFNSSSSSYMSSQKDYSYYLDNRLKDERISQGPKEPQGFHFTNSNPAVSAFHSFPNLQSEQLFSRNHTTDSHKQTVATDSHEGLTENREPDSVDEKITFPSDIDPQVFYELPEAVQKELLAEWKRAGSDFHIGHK

target: DNA polymerase iota (Homo sapiens) (UniProt Q9UNA4); assay: qHTS for Inhibitors of Polymerase Iota; details: Pol iota fluorescent replication assay, 10 min; series mostly up to 115 µM; activity, negative = inhibition: at the top concentration
In short: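 Fluorescent replication assay read twice, at 0 min and 10 min after adding 50 nM (final) substrate. Enzyme (10 nM) and compounds were first incubated 15 min at room temperature; enzyme-free buffer wells were negative controls.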
Potency is read from the fitted curve at half-maximal effect.

Q: For `COc1cccc(NC(=O)CSc2cc(C)[nH]c(=O)n2)c1`, which “activity, negative = inhibition” value is on record?
A: Its value is inactive: 23.1%.

Q: Which Potency does the source give for `CCc1cc(=O)n2c([nH]c3ccccc32)c1C#N` here?
A: Its Potency is inconclusive: 25.1 µM [inhibitor, partial curve, poor fit].

Q: With `NC(=O)[C@H]1CC2(CC(c3cccc(NC(=O)COc4ccc(Cl)cc4)c3)=NO2)CN1C(=O)c1ccc(Cl)cc1` (some centres not stated) as the compound, how does the Potency read?
A: Its Potency is inconclusive: 39.8 µM [inhibitor, single point].

Q: With `Cc1ccc(S(=O)(=O)N(C)C[C@@H]2Oc3ccc(NS(C)(=O)=O)cc3CC(=O)N([C@H](C)CO)C[C@@H]2C)cc1` as the compound, how does the Potency read?
A: The Potency was inconclusive: 35.5 µM [inhibitor, partial curve, poor fit].

Q: How did the Potency turn out when `CN(C)c1ccc(C(=O)NNC(=O)c2ccc(Cl)cc2)cc1` was run?
A: The Potency was inconclusive: 56.2 µM [inhibitor, partial curve, poor fit].

Q: How did the “activity, negative = inhibition” value turn out when `CCc1ccc(OCC(=O)Nc2ccc(-c3nc4ccccc4o3)c(O)c2)cc1` was run?
A: Its value is inactive: 0.494%.

Q: With `O=C1c2ccccc2C(=O)N1OS(=O)(=O)c1ccc(F)cc1` as the compound, how does the “activity, negative = inhibition” value read?
A: The value was inactive: -15.9%.

Q: `COc1cc(N2CCCC2)c(OC)cc1/C=C1/NC(=S)NC1=O` was tested. Which Potency did it give?
A: Its Potency is inconclusive: 56.2 µM [inhibitor, partial curve, poor fit].

Q: With `CCCCCCCN1CCN=C1Nc1ccccc1` as the compound, how does the Potency read?
A: The Potency was inconclusive: 28.2 µM [inhibitor, full curve, poor fit].

Q: For `CC(=O)N1c2ccc(S(=O)(=O)NCc3ccc(Cl)cc3)cc2CC1C` (configuration not stated), which Potency is on record?
A: Its Potency is inconclusive: 39.8 µM [inhibitor, partial curve, poor fit].

Q: With `CN1CCN(c2ccccc2NC(=O)c2ccc(N3CCCCC3)c([N+](=O)[O-])c2)CC1` as the compound, how does the “activity, negative = inhibition” value read?
A: The value was inactive: -16.8%.

Q: With `CCOc1ccc(NS(=O)(=O)c2ccc3[nH]cc(C(=O)NC(C)CC)c(=O)c3c2)cc1` (configuration not stated) as the compound, how does the “activity, negative = inhibition” value read?
A: Its value is inactive: -32.2%.

Q: Which “activity, negative = inhibition” value does the source give for `COc1ccc(C(=O)N/N=C/c2ccc(OC)c(CN3CCCc4ccccc43)c2)cc1` here?
A: The value was inactive: 44%.

Q: For `CC(=O)NC1(C(F)(F)F)C(=O)NC(C)=C1C#N` (configuration not stated), which Potency is on record?
A: The Potency was inconclusive: 89.1 µM [inhibitor, single point].

Q: `CCN(CCCNC(=O)CSc1cc(=O)n(C)c2cc(Cl)ccc12)c1ccccc1` was tested. Which Potency did it give?
A: Its Potency is inconclusive: 56.2 µM [inhibitor, partial curve, poor fit].

Q: `CCN1/C(=C/c2ccc3cc(C)ccc3[n+]2C)Sc2ccc3sccc3c21` was tested. Which Potency did it give?
A: The Potency was inconclusive: 22.4 µM [inhibitor, partial curve, poor fit].

Q: `O=C(O)COc1ccc(/C=N/n2c(COc3ccccc3)nc3ccccc3c2=O)cc1` was tested. Which “activity, negative = inhibition” value did it give?
A: Its value is inactive: 8.34%.

Q: `CC(C#CCN1CCCCC1)OCCOCc1ccccc1` (configuration not stated) was tested. Which Potency did it give?
A: The Potency was inconclusive: 1 µM [inhibitor, partial curve, poor fit].

Q: For `O=C(COc1ccccc1)NCC(=O)N1CCCCCC1`, which “activity, negative = inhibition” value is on record?
A: The value was inactive: 17.7%.

Q: With `Cc1cc(Nc2ccccc2Cl)c2ccccc2n1` as the compound, how does the “activity, negative = inhibition” value read?
A: The value was inactive: 2.53%.

Q: How did the Potency turn out when `CC(C)CCNC(=O)c1ccc(Cn2c(=S)[nH]c3ccccc3c2=O)cc1` was run?
A: The Potency was inconclusive: 20 µM [inhibitor, single point].

Q: Which Potency does the source give for `COc1ccc(/C=C2\SC(N3CCc4ccccc4C3)=NC2=O)cc1OC` here?
A: The Potency was inconclusive: 22.4 µM [inhibitor, partial curve, poor fit].

Q: `CC(=O)O[C@H]1[C@H](C)OC=C[C@@H]1OC(C)=O` was tested. Which “activity, negative = inhibition” value did it give?
A: Its value is inactive: -18.8%.

Q: For `COc1cccc(CN(C)C(=O)c2ccc3nccnc3c2)c1`, which Potency is on record?
A: Its Potency is inconclusive: 15.8 µM [inhibitor, full curve, poor fit].

Q: `COc1ccc(S(=O)(=O)N2CCc3ccccc32)cc1OC` was tested. Which Potency did it give?
A: The Potency was inconclusive: 79.4 µM [inhibitor, partial curve, poor fit].

Q: Which Potency does the source give for `COc1cc(C(c2c(C)[nH][nH]c2=O)c2c(C)[nH][nH]c2=O)cc(OC)c1OC` here?
A: The Potency was active: 8.91 µM.

Q: For `O=C(N/N=C/c1ccccc1)c1cc(-c2ccc3c(c2)OCO3)n[nH]1`, which Potency is on record?
A: The Potency was inconclusive: 50.1 µM [inhibitor, partial curve, poor fit].

Q: For `O=S(=O)(c1ccc(Cl)cc1)N1CCN(c2nc(-c3cccs3)nc3ccccc23)CC1`, which Potency is on record?
A: The Potency was inconclusive: 25.1 µM [inhibitor, single point] and inconclusive: 631 nM [inhibitor, full curve, poor fit].

Q: `O=C(Nc1ccc(F)cc1F)c1cc2ccc3cccnc3c2[nH]1` was tested. Which Potency did it give?
A: Its Potency is inconclusive: 79.4 µM [inhibitor, partial curve, poor fit].

Q: `O=C1C(C=NCc2ccco2)=C(O)c2ccccc21` was tested. Which Potency did it give?
A: Its Potency is inconclusive: 14.1 µM [inhibitor, partial curve, poor fit].

Q: `Cc1ccc(C(=O)OCC(=O)c2ccc(Cl)s2)s1` was tested. Which Potency did it give?
A: Its Potency is inconclusive: 12.6 µM [inhibitor, partial curve, poor fit].

Q: Which Potency does the source give for `O=C1NC(=S)N/C1=C\c1ccccc1OCc1ccc(C(=O)O)cc1` here?
A: The Potency was inconclusive: 20 µM [inhibitor, partial curve, poor fit].

Q: For `COc1ccc(NC(=O)/C(Cl)=C(/Cl)S(=O)Cc2ccccc2Cl)cn1` (configuration not stated), which Potency is on record?
A: The Potency was inconclusive: 11.2 µM [inhibitor, partial curve].

Q: With `Cc1ccc(NS(=O)(=O)c2ccc(F)cc2)nc1` as the compound, how does the Potency read?
A: The Potency was inconclusive: 89.1 µM [inhibitor, partial curve, poor fit].

Q: With `O=C(Oc1ccc(N(Cc2cccs2)C2=NS(=O)(=O)c3ccccc32)cc1)c1ccccc1Cl` as the compound, how does the Potency read?
A: Its Potency is inconclusive: 39.8 µM [inhibitor, single point].

Q: `COc1cccc(CC(=O)NCC2COc3ccccc3O2)c1OC` (configuration not stated) was tested. Which Potency did it give?
A: Its Potency is inconclusive: 112 µM [inhibitor, partial curve, poor fit].

Q: `CC(=O)c1cccc(NC(=O)c2ccc([N+](=O)[O-])o2)c1` was tested. Which Potency did it give?
A: Its Potency is active: 79.4 µM.

Q: Which Potency does the source give for `COC(=O)c1ccc(C2c3c(-c4ccc(Br)cc4)n[nH]c3C(=O)N2c2ccc(Cl)cc2)cc1` (configuration not stated) here?
A: The Potency was inconclusive: 39.8 µM [inhibitor, single point].

Q: `Cc1cc(/C=C2\SC(=O)N(C)C2=O)c(C)n1-c1cccc(C(=O)O)c1` was tested. Which Potency did it give?
A: Its Potency is active: 17.8 µM.

Q: How did the Potency turn out when `N#C/C(=C/c1cccn1-c1cccc(C(=O)O)c1)c1ccc(Cl)cc1` was run?
A: Its Potency is active: 20 µM.

Q: How did the “activity, negative = inhibition” value turn out when `CCN1CCC(NC(=O)Nc2ccc(F)cc2F)CC1` was run?
A: The value was inactive: 37.8%.

Q: `C/C(=N\NC(=O)Cn1nnc2ccccc21)c1ccco1` was tested. Which “activity, negative = inhibition” value did it give?
A: Its value is inactive: 3.11%.
